Results as given in publication doi:10.1101/2025.04.28.650977.
Results are given in words; binding and its absence hold for the method and conditions named. In cells and extracts the contact can be indirect.

Chains of the proteins cited; added tags and fusions are not shown.
UniProt O14543: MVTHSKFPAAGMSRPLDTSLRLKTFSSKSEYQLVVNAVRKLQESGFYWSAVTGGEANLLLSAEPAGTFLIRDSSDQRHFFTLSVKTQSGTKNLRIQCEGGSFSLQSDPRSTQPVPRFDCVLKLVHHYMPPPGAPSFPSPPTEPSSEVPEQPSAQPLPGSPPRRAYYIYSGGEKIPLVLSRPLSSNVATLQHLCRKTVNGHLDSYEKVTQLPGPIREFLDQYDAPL
UniProt Q8WXH5: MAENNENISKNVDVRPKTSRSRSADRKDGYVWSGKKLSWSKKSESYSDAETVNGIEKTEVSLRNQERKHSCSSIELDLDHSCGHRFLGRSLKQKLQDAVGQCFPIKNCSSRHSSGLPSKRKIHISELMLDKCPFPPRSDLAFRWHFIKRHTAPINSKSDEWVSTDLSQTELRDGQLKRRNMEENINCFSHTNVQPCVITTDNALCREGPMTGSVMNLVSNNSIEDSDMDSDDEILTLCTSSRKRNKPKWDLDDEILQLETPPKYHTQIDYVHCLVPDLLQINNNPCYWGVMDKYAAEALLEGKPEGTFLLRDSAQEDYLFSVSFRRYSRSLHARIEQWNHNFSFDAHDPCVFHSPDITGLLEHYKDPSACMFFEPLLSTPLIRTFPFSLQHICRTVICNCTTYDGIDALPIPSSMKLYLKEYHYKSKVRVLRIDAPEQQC
UniProt Q8WZ64: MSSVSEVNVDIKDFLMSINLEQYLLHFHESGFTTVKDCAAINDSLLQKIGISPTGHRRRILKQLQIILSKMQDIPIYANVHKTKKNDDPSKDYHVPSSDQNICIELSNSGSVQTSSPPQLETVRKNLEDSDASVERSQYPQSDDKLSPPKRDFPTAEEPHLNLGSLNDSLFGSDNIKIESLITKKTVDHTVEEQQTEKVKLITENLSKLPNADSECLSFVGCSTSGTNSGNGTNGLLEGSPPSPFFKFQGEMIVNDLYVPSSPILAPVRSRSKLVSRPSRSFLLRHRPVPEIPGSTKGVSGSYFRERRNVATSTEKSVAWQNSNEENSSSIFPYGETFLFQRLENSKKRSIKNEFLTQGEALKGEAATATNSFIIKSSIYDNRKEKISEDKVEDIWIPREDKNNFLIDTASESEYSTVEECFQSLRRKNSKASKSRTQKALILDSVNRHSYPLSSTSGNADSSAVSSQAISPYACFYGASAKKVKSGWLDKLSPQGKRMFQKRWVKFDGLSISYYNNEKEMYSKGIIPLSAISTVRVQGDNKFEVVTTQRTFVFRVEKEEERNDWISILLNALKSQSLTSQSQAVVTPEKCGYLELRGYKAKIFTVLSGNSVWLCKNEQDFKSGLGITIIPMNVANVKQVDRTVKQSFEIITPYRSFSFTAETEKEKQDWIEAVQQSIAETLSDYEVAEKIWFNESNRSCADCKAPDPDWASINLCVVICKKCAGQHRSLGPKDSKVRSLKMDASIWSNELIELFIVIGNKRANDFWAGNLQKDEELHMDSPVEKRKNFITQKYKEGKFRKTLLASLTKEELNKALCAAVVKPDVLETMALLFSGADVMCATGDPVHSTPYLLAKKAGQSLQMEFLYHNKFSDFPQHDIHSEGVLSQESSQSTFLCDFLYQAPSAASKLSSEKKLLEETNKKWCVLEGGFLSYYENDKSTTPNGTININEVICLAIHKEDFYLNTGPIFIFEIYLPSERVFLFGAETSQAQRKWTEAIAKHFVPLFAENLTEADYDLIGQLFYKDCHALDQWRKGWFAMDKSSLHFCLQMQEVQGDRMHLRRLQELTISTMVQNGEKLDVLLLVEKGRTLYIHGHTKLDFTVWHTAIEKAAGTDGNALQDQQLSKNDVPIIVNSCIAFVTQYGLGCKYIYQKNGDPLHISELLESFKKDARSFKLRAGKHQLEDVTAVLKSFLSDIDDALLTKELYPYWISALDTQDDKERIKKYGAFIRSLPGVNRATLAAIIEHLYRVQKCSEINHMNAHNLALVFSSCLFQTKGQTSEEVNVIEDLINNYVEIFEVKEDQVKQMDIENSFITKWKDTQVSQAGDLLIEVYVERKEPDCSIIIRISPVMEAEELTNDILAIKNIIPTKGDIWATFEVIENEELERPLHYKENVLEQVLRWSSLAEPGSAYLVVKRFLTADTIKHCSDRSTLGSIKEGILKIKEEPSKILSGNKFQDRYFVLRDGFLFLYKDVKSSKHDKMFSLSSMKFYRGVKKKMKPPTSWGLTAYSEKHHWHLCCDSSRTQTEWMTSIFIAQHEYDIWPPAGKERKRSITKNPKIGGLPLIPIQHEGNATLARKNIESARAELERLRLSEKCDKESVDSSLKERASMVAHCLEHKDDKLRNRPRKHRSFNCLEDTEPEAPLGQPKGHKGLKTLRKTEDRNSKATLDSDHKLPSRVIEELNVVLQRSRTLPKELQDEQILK

Key:
[1] = molecular target: full-length Flag-tagged SOCS3 (UniProt O14543); test: co-IP
[2] = molecular target: full-length Flag-tagged SOCS4 (UniProt Q8WXH5); test: co-IP

ARAP2, endogenous in HEK293T cells (from UniProt Q8WZ64 1-1704)
binding [1]: no binding
binding [2]: no binding
